Laboratory results from US6238904.

System: HpyCH4III restriction endonuclease (Helicobacter pylori CH4 (NEB#1236))
Assay: enzyme reaction in vitro
Conditions: primer extension product of pNEB193, 37 C 1 h, about 0.5 unit enzyme; purified native protein; label: 33P; only the motif is given; variant of HpyCH4III recognition site ACNGT

ACTGT (double strand) [pNEB193 polylinker HpyCH4III site at position 453 (N = T)]
activity on this sequence: active

For at least one entry, the source does not settle the construct or the ends of the probe.
